# According to PubChem BioAssay AID485298 (National Center for Advancing Translational Sciences (NCATS), 2010):
# The campaign covered roughly 320,000 compounds. About 740 (0.23%) were called active. This list was built around the results that the source calls inconclusive (neither active nor inactive); the mix of calls is not that of the screen. Calls follow the shape of the dose curve; as a rule, active = well fitted activation curve with a large enough effect; inconclusive = small, poorly fitted or top-dose-only effect; inactive = no such curve, though single readings can be large or run the other way. Potencies of inconclusive entries are doubtful fits and often do not repeat.
# Experiment: qHTS Assay for Small Molecule Inhibitors of Mitochondrial Division or Activators of Mitochondrial Fusion; also: nearly all actives have a fitted effect of over 45% in size; as to growth rescue (activation): % of control where 0% means no effect
# Settings: S. cerevisiae fusion-defective mutant growth rescue, CellTiterGlo 48 h; growth rescue (activation): at 46.1 µM (top of the series) unless noted
# Procedure, shortened: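 S. cerevisiae fusion-defective temperature-sensitive mutants (e.g. fzo1-1, mgm1-5) grown 48 h at 37C in YPEG (ethanol/glycerol non-fermentable) medium with 23 nl compound per well; growth rescue read as CellTiterGlo luminescence.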
# Potency is read from the fitted curve at half-maximal effect.
SMILES,Potency,growth rescue (activation)
Cc1ccc(CNC(=O)c2nn(C)c3c2CS(=O)(=O)c2ccccc2-3)cc1,"inconclusive: 12.6 µM [activator, partial curve]",
S=c1[nH]c2ccc(Cl)cc2s1,"inconclusive: 35.5 µM [activator, single point]",
O=c1cc(O)cc(/C=C/c2ccc(O)c(O)c2)o1,active: 16.4 µM,
COc1ccccc1CNS(=O)(=O)CC12CCC(CC1=O)C2(C)C (centres undefined),"inconclusive: 31.6 µM [activator, single point]",
O=C1CC(/C=C/c2ccncc2)=Nc2ccccc2N1,"inconclusive: 28.2 µM [activator, single point]",
C/C(N)=C(/C#N)C(=O)CSc1nc2scc(-c3ccccc3)c2c(=O)n1C,,inactive: 28.1%
O=C(Nc1cccc(S(=O)(=O)N2CCCCC2)c1)c1ccc(S(=O)(=O)C(F)F)cc1,,inactive: -2.54%
Cc1ccc(S(=O)(=O)N2CCN(CCc3ccccc3)CC2)c(C)c1,"inconclusive: 35.5 µM [activator, partial curve, poor fit]",
O=S(=O)(c1cc(Cl)ccc1Cl)n1ccnc1,"inconclusive: 35.5 µM [activator, single point]",
O=C1c2cccc(OCC(=O)N3CCCc4ccccc43)c2CCN1Cc1ccccc1,"inconclusive: 35.5 µM [activator, single point]",
CC(=O)c1ccc(Nc2cc(C)nc3ccccc23)cc1,,inactive: -4.4%
C=CCn1c(=S)[nH]c2scc(-c3cccs3)c2c1=O,,inactive: 1.83%
CCOC(=O)C(C)On1c(-c2cccc(Cl)c2)nc2ccc([N+](=O)[O-])cc21 (centres undefined),"inconclusive: 11.2 µM [activator, partial curve]",
NC(=O)COC(=O)c1ccccc1Nc1ccc(SC(F)F)cc1,"inconclusive: 22.4 µM [activator, single point]",
Cc1nc(SCc2cccc(Oc3ccccc3)c2)n[nH]1,,inactive: 0.435%
CC(C)CC(COCc1cccc(C(F)(F)F)c1)N1CCN(C(=O)c2cccc(C(F)(F)F)c2)CCC1=O (centres undefined),,inactive: 14.7%
COc1ccc(N2CCN(C(=O)Cn3nnc(-c4cccs4)n3)CC2)cc1,,inactive: 0.879%
Cc1ccc2cc(CN(CCCN3CCOCC3)C(=O)NC3CCCCC3)c(=O)[nH]c2c1C,,inactive: 2.84%
N#Cc1cc2c(nc1SCc1cccnc1)CCCCC2,"inconclusive: 12.6 µM [activator, partial curve]",
CC1CCN(c2ccc(N3C(=O)C4CCCCC4C3=O)cc2[N+](=O)[O-])CC1 (centres undefined),,inactive: -1.76%
CN(C)c1ccc(/C=C(/C(=O)c2ccc(Cl)cc2Cl)n2cncn2)cc1,"inconclusive: 35.5 µM [activator, single point]",
Cc1cccc(NC(=S)NCCC(c2ccccc2)c2ccccc2)c1,"inconclusive: 35.5 µM [activator, single point]",
CN=C(Nc1ccccc1)SC1CC(=O)N(c2cccc(OC)c2)C1=O (centres undefined),"inconclusive: 5.01 µM [activator, full curve]",
CCC1Oc2ccc(C)cc2N(CC(=O)NCCCN2CCCC2)C1=O (centres undefined),"inconclusive: 35.5 µM [activator, partial curve]",
c1ccc(-c2nc3nc4ccccc4nc3n2Cc2ccco2)cc1,"inconclusive: 14.1 µM [activator, partial curve, poor fit]",

SMILES,Potency,growth rescue (activation)
COc1cc2c(c(O)c1OC)-c1c(cc(OC)c(OC)c1OC)C[C@@H](C)[C@@H](C)C2,"inconclusive: 4.47 µM [activator, partial curve]",
Clc1ccc(-c2ncc3ccccn23)cc1,"inconclusive: 35.5 µM [activator, single point]",
CCc1ccc(Oc2coc3cc(O)ccc3c2=O)cc1,"inconclusive: 11.2 µM [activator, partial curve]",
CC(CCc1ccc(O)cc1)NCCc1ccc(O)c(O)c1 (centres undefined),,inactive: 22.1%
CC1=C(C#N)C(=O)NC(=O)/C1=C\c1ccc(-c2ccc(C)cc2[N+](=O)[O-])o1,,inactive: 0.749%
COc1ccc(/C=C/c2nc(S(=O)(=O)c3ccccc3)c(N(C)C)o2)cc1OC,,inactive: -4.05%
CC(C)S(=O)(=O)c1csc(NC(=O)Nc2cc(Cl)ccc2Cl)c1Cl,,inactive: 16.3%
CSc1nc(-c2cccs2)c(C#N)c(=O)[nH]1,,inactive: -3.9%
CC(C)n1c(C(=O)OCC(=O)NCc2ccc3c(c2)OCO3)cc2sccc21,"inconclusive: 22.4 µM [activator, single point]",
CC1CCN(C(=O)CSc2nc3ccccc3s2)CC1,,inactive: 2.41%
Cc1c(Cl)c([N+](=O)[O-])nn1Cc1ccc(C(=O)Nc2ccc(Cl)cn2)o1,"inconclusive: 25.1 µM [activator, single point]",
CC(C)c1nc(SCC(=O)N2CCCc3ccccc32)c2c(=O)n(C)c(=O)n(C)c2n1,"inconclusive: 35.5 µM [activator, single point]",
O=C(NCc1cccc(C(F)(F)F)c1)c1cc(Cl)ccc1Cl,,inactive: 0.109%
O=C(c1ccco1)N1N=C(c2ccc(Cl)cc2)CC1(O)C(F)(F)F (centres undefined),,inactive: 1.68%
CC(C)(C)Nc1nc(NC(C)(C)C)nc(-n2ccnc2)n1,"inconclusive: 17.8 µM [activator, single point]",
COc1ccccc1-c1nn(-c2ccccc2)cc1C(=O)N1CCc2ccccc2C1,"inconclusive: 35.5 µM [activator, single point]",
CCOC(=O)c1c(NC(=O)COc2cccc3c2CCN(C)C3=O)sc2c1CCC2,,inactive: 19.1%
O=C(c1cccc(S(=O)(=O)N2CCc3ccccc3C2)c1)N1CCN(c2ccc(O)cc2)CC1,"inconclusive: 22.4 µM [activator, single point]",
COc1ccc(C(=O)NC(=S)Nc2cccc(NC(=O)c3ccco3)c2)cc1[N+](=O)[O-],,inactive: -15.4%
CCN1C(=O)[C@@H]2Cc3c([nH]c4ccccc34)C(c3ccc(OC)cc3)N2C1=S (some centres undefined),"inconclusive: 14.1 µM [activator, partial curve]",
Nc1c(S(=O)(=O)c2cc(Cl)ccc2Cl)c2nc3ccccc3nc2n1CCN1CCOCC1,"inconclusive: 17.8 µM [activator, single point]",
C/C(=N\NC(=O)COc1ccc(C)cc1[N+](=O)[O-])c1cccs1,"inconclusive: 6.31 µM [activator, single point]",
O=S(=O)(NCC(c1ccco1)N1CCc2ccccc2C1)c1ccc(Br)cc1 (centres undefined),"inconclusive: 35.5 µM [activator, single point]",
CCSc1nnc2ccc(-c3cccs3)nn12,"inconclusive: 35.5 µM [activator, partial curve]",

SMILES,Potency,growth rescue (activation)
Cc1nnc(SCC(=O)Nc2sc3c(c2C(=O)c2ccccc2)CCCC3)s1,"inconclusive: 35.5 µM [activator, single point]",
C=CCSc1nnc(-c2cc3c(-c4ccccc4)nn(C)c3s2)n1C,,inactive: 1.98%
Cn1c(C(=O)NCCN2CCOCC2)cc2c(=O)n3ccccc3nc21,"inconclusive: 5.62 µM [activator, single point]",
Cc1ccc(S(=O)(=O)N(C)c2nc3ccccc3[nH]c2=S)cc1,,inactive: 18.4%
Cc1onc(-c2ccccc2)c1NC(=O)Nc1c(-c2ccccc2)noc1C,,inactive: 16.8%
COc1ccc(C(=O)OCc2c(-c3cccc(OC)c3)ncc3ccccc23)cc1,"inconclusive: 22.4 µM [activator, single point]",
Cc1ccc(S(=O)(=O)NCC(c2ccco2)N2CCc3ccccc3C2)cc1 (centres undefined),"inconclusive: 22.4 µM [activator, single point]",
c1ccc2c(c1)nc(Nc1ccc(N3CCCCC3)cc1)c1nncn12,"inconclusive: 20 µM [activator, partial curve]",
COCCOc1ccc(C(F)(F)F)cc1NC(=O)c1ccc(C(F)(F)F)cc1,"inconclusive: 35.5 µM [activator, single point]",
CN(C)c1ccc(/C=N/N(CCO)C2=NS(=O)(=O)c3ccccc32)cc1,,inactive: 1.28%
COc1cccc(NC(=O)CN2C(=O)NC3(CCc4ccccc43)C2=O)c1 (centres undefined),,inactive: -2.37%
Cc1ccc(C(C(=O)NCC2CCCO2)N(Cc2ccccc2)C(=O)c2ccc(-c3ccccc3)[nH]2)o1 (centres undefined),"inconclusive: 22.4 µM [activator, single point]",
CCCCCn1c(=O)[nH]c2cc(C(=O)NCCCN3CCC(C)CC3)ccc2c1=O,,inactive: 1.04%
Cc1ccc(C(=O)/C=C\C(=O)c2ccc(C)cc2)cc1,,inactive: -18.6%
Cc1cc(C)nc(SC2c3cccc4cccc(c34)C2NS(=O)(=O)c2ccccc2)n1 (centres undefined),active: 20 µM,
COc1cc(/C=N/NC(N)=S)ccc1OCC(=O)Nc1ccc(C)c(C)c1,,inactive: 8.9%
COc1ccc(/C=C/C(=O)c2ccccc2)c(OC)c1,,inactive: -0.454%
N#CCC(=O)N/N=C\c1cc(Br)ccc1OC/C=C/c1ccccc1,,inactive: -1.19%
O=C(Nc1cccc(F)c1)c1ccc(CSc2ccccc2)o1,"inconclusive: 15.8 µM [activator, single point]",
Cc1ccc(-n2nc3c(c2NC(=O)c2ccc(F)c(F)c2)CS(=O)(=O)C3)cc1,,inactive: -2.46%
CCc1nnc(NC(=O)C2Cc3ccccc3CN2S(=O)(=O)c2cccs2)s1 (centres undefined),,inactive: -4.43%
CCOC(=S)SCC(=O)N1CCc2ccccc2C1C1C(=O)CC(C)(C)CC1=O (centres undefined),"inconclusive: 35.5 µM [activator, single point]",
O=C(c1ccccc1)[C@@H]1[C@@H]2C(=O)N(c3ccc(F)cc3)C(=O)[C@@H]2C2CCCN21 (some centres undefined),,inactive: -4.92%
CC(Nc1ccc(Br)cn1)c1cc(Cl)ccc1O (centres undefined),"inconclusive: 11.2 µM [activator, partial curve]",

# Reprinted at random: three compounds from above
SMILES,Potency,growth rescue (activation)
COc1cc(/C=N/NC(N)=S)ccc1OCC(=O)Nc1ccc(C)c(C)c1,,inactive: 8.9%
COc1ccc(/C=C/C(=O)c2ccccc2)c(OC)c1,,inactive: -0.454%
N#CCC(=O)N/N=C\c1cc(Br)ccc1OC/C=C/c1ccccc1,,inactive: -1.19%
